# Reference: PubChem BioAssay AID1487 (National Center for Advancing Translational Sciences (NCATS), 2009)
# Where “and” joins values, the source holds several entries; their conditions need not be identical. Equal entries are not always repeated. The list shows a part of the results. Shown are side measurements of this screen, not its main read-out; they come without a call. Most of these compounds were active or inconclusive in the main read-out, so they are no random draw. Potencies come from curve fits of mixed quality, noted in brackets.
# Test: qHTS Assay for Modulators of Lamin A Splicing
# Details: HeLa LMNA splicing GFP/RFP minigene ratio, 48 h
# Procedure, shortened: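 Read-out is the ratio of GFP to DsRed2 object intensity, acquired by 488 nm laser-scanning cytometry on HeLa lamin A-EGFP minigene reporter cells. Compound incubation 48 hrs at 37 °C in Opti-MEM with 2% FBS; DMSO 0.5% final.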
# [1] = measured here: GFP splicing reporter channel
# [2] = measured here: RFP viability control channel
Compound,AC50 [1],AC50 [2]
O=c1cc(-c2ccccc2)[nH]c2cc(Cl)ccc12,"3.98 µM [rising, full curve]","2.82 µM [rising, full curve]"
CCOC(=O)c1c(NC(=O)CSc2nnc(-c3ccccc3)n2CC)sc(C(C)=O)c1C,"10 µM [rising, single point]","14.1 µM [rising, single point]"
Cc1cccc(CS(=O)(=O)c2nnc([C@H](Cc3ccccc3)NC(=O)OC(C)(C)C)o2)c1,"35.5 µM [falling, single point]","35.5 µM [falling, single point]"
CCOc1ccc(OCC)c(NC(=O)CN2CCN(c3cc(C)ccc3C)CC2)c1,"3.16 µM [rising, full curve, poor fit]","8.91 µM [rising, partial curve]"
O=C(c1cccs1)N1CCC(c2nc3ccccc3s2)CC1,"5.01 µM [rising, partial curve, poor fit]",
Cc1nn(C(C)(C)C)c(OC(=O)c2ccc3c(c2)OCO3)c1S(=O)(=O)c1ccccc1,"35.5 µM [falling, single point]","35.5 µM [falling, single point]"
COc1ccc(OC)c(S(=O)(=O)NCC(c2ccc(N(C)C)cc2)N2CCOCC2)c1 (stereo not given),,"0.0316 µM [rising, full curve, poor fit]"
Cc1ccccc1NC(=O)c1cc(S(=O)(=O)c2ccccc2)ccc1Cl,,"15.8 µM [rising, single point]"
O=C(Cn1cc(F)c(=O)[nH]c1=O)NCCO,,"12.6 µM [rising, single point]"
Cc1ccc(/C=N/NC(=O)c2cc(-c3cccnc3)nc3ccccc23)cc1,,"20 µM [rising, partial curve, poor fit]"
CCOC(=O)c1c(-c2cccc([N+](=O)[O-])c2)csc1NC(=O)C1CCCCC1,"11.2 µM [rising, single point]","20 µM [rising, single point]"
CCc1cc2c(=O)n(CCC(C)C)c(=S)[nH]c2s1,,"31.6 µM [rising, single point]"
COc1cc(/C=C/C(=O)CC(=O)/C=C/c2ccc(O)c(OC)c2)ccc1O,"35.5 µM [falling, single point]","1.78 µM [falling, partial curve, poor fit] and 35.5 µM [rising, partial curve]"
Cc1oc(-c2ccccc2F)nc1CS(=O)(=O)CC(=O)N1CCN(c2ccccc2)CC1,,"35.5 µM [rising, single point]"
CC(C)Nc1nc(-c2ccccc2)nnc1-c1ccccc1,"12.6 µM [falling, partial curve, poor fit]","25.1 µM [falling, partial curve, poor fit]"
O=C(N[C@@H](Cc1ccccc1)c1nc2ccccc2[nH]1)c1cc([N+](=O)[O-])ccc1Cl,,"0.251 µM [rising, partial curve]"
Cc1ccc(NC(=O)c2cc(C(=O)c3cc(Cl)ccc3O)cn(-c3ccc(C)cc3)c2=O)cc1,"12.6 µM [rising, partial curve]","12.6 µM [rising, partial curve]"
CC(CNC(=O)c1ccc2c(c1)nc1n2CCCCC1)c1ccccc1 (stereo not given),"0.282 µM [rising, full curve, poor fit]","20 µM [rising, partial curve]"
C=CCOC(=O)c1[nH]c2c(c1C)C(=O)CC(c1ccco1)C2 (stereo not given),,"0.501 µM [rising, full curve]"
C/C(=N\S(=O)(=O)c1ccc(C)cc1)N1CCN(S(=O)(=O)c2ccccc2)C1,,"11.2 µM [rising, partial curve, poor fit]"
Cc1cc(N2C(=O)c3ccc(C(=O)NCc4ccccc4)cc3C2=O)no1,,"35.5 µM [rising, single point]"
Cc1ccc(C2C(=O)N(C3CCC(C)CC3)CC(=O)N2C2CCCC2)cc1 (stereo not given),,"2.51 µM [rising, full curve, poor fit]"
CC1CCCCN1Cc1c(O)ccc2c(=O)c(-c3nc4ccccc4s3)c(N)oc12 (stereo not given),,"12.6 µM [rising, partial curve]"
COc1ccccc1N1CCN(C(=O)COc2ccc(C)cc2Br)CC1,"35.5 µM [rising, single point]","25.1 µM [rising, single point]"
CCn1c(SCC(=O)N/N=C/c2ccc(C)s2)nc2ccccc21,,"12.6 µM [rising, partial curve]"
Cc1cc2nc3c(=O)[nH]c(=O)nc-3n(CC(O)C(O)C(O)COP(=O)(O)O)c2cc1C (stereo not given),"22.4 µM [falling, single point]","20 µM [falling, partial curve]"
Cc1cc(S(=O)(=O)NC2CCCCC2)ccc1OCC(=O)NCC1CCCO1 (stereo not given),,"0.112 µM [falling, full curve, poor fit]"

Compound,AC50 [1],AC50 [2]
Cc1ccc(S(=O)(=O)CC2CSc3nc4ccccc4n32)cc1 (stereo not given),"0.794 µM [rising, full curve, poor fit]","1.26 µM [rising, full curve]"
CCNc1ccc(Br)cc(C(=O)/C=C/c2ccc(Cl)cc2)c1=O,,"35.5 µM [rising, single point]"
OCC1(Cc2ccccc2)CCN(C2CCN(c3ccccc3F)CC2)CC1,"12.6 µM [falling, partial curve, poor fit]","8.91 µM [falling, full curve, poor fit]"
O=C(CCCc1nc2ccccc2s1)Nc1ccccc1,,"35.5 µM [falling, single point]"
COC(=O)c1[nH]c2cc(OC)ccc2c1NC(=O)CN1CCN(c2cccc(C)c2)C(C)C1 (stereo not given),,"17.8 µM [falling, single point]"
CC1CCN(C(=O)CSc2nnc(-c3cc4ccccc4cc3O)n2Cc2ccco2)CC1,,"15.8 µM [rising, partial curve]"
Cn1nc(C(=O)Nc2ccc(S(=O)(=O)N3CCCCC3)cc2)c2ccccc2c1=O,"0.00316 µM [rising, full curve, poor fit]",
COc1cc2c(cc1OC)-c1cc(N3CCCCCC3)nc(=O)n1CC2,,"14.1 µM [rising, single point]"
CC1(C)C(C=C(Cl)Cl)C1C(=O)N1CCN(Cc2ccccc2)CC1 (stereo not given),"2 µM [falling, partial curve, poor fit]","2 µM [falling, partial curve]"
COC(=O)c1cn(C)c2ccc(S(=O)(=O)N3CCCC3)cc2c1=O,"1.12 µM [falling, full curve]","10 µM [falling, partial curve, poor fit]"
Cc1cccc(Nc2ncc3c(n2)CC(c2ccco2)CC3=O)c1 (stereo not given),,"11.2 µM [rising, single point]"
Cc1cnc([N+](=O)[O-])n1CCOC(=O)NC(=O)c1ccc(C(F)(F)F)cc1,,"0.00891 µM [falling, full curve, poor fit]"
Cc1ccc(-n2nnnc2SCC(=O)Nc2nc(-c3ccc(F)cc3)cs2)cc1C,,"35.5 µM [falling, single point]"
CSc1nc(C)[nH]c(=O)c1C#N,"0.794 µM [rising, full curve, poor fit]",
CC(C)(C)c1ccc(C(=O)NCCCN2CCN(CCCNC(=O)c3ccc(C(C)(C)C)cc3)CC2)cc1,"35.5 µM [rising, single point]","35.5 µM [rising, single point]"
Cc1ccc(CSc2nnc(SCC(=O)N/N=C/c3c(C)nn(-c4ccccc4)c3C)s2)cc1,"22.4 µM [rising, single point]","25.1 µM [rising, single point]"
CCOc1ccc(NC(=O)C2(c3cccs3)CCOCC2)cc1,"0.0158 µM [falling, full curve, poor fit]",
O=C1C(SCCO)=C(SCCO)C(=O)c2ccccc21,"3.98 µM [falling, full curve]","5.01 µM [falling, full curve]"
Cc1cc(C(=O)NCCC2=CCCCC2)no1,"0.562 µM [rising, partial curve, poor fit]","7.08 µM [rising, partial curve, poor fit]"
CC(C)(C)c1ccc(-c2nc(C#N)c(NCc3ccncc3)o2)cc1,"35.5 µM [rising, single point]","31.6 µM [rising, single point]"
COc1cc(CC(=O)Nc2ccc3nc(C)sc3c2)cc(OC)c1OC,,"25.1 µM [rising, single point]"
COc1ccc(Oc2ncc3nc(-c4ccc(F)cc4)c(=O)n(Cc4cccs4)c3n2)cc1,"14.1 µM [falling, partial curve]",
O=C(COc1ccc(-c2ccccc2)cc1)N/N=C/c1cc(O)ccc1Br,,"35.5 µM [rising, single point]"
Cc1nn2c(-c3ccco3)nnc2c2ccccc12,,"6.31 µM [rising, full curve, poor fit]"
Cc1onc(-c2c(F)cccc2Cl)c1C(=O)NCC1COc2ccccc2O1 (stereo not given),"14.1 µM [rising, single point]","17.8 µM [rising, single point]"
CCOC(=O)Nc1ccc(S(=O)(=O)N2CCC(C)CC2)cc1,,"6.31 µM [rising, partial curve]"

# A stretch of the results above, for reference:
Compound,AC50 [1],AC50 [2]
Cc1cc(C(=O)NCCC2=CCCCC2)no1,"0.562 µM [rising, partial curve, poor fit]","7.08 µM [rising, partial curve, poor fit]"
CC(C)(C)c1ccc(-c2nc(C#N)c(NCc3ccncc3)o2)cc1,"35.5 µM [rising, single point]","31.6 µM [rising, single point]"
COc1cc(CC(=O)Nc2ccc3nc(C)sc3c2)cc(OC)c1OC,,"25.1 µM [rising, single point]"
